# From PubChem BioAssay AID504444 (National Center for Advancing Translational Sciences (NCATS), 2011)
# In all, about 360,000 compounds went through this assay and about 7,500 (2.1%) were called active. Inconclusive means that the source gave no clear call. Such entries were picked first, then a sample of the others. The call rests on the fitted dose curve; in most records, active means well fitted inhibition curve with a large enough effect; inconclusive means small, poorly fitted or top-dose-only effect, or effect the other way; inactive means flat fitted curve, though single readings scatter. A potency beside an inconclusive call is a rough fit, not a confirmed value.
# Assay: Nrf2 qHTS screen for inhibitors; further: nearly all actives have a fitted effect of over 60% in size
# Conditions: A549 ARE-Fluc reporter, luciferase luminescence, 18-24 h; series mostly up to 46 µM
# Method in brief: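 Nrf2 function is reported as luminescence of an ARE-controlled luciferase in A549 cells. Compounds were tested at several concentrations, and a CellTiter-Fluor read on the same wells flagged cytotoxicity.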
# Potency means the concentration at half of the fitted maximal effect.
row,SMILES,Potency
1,Cc1nn(C(C)C(=O)N2CCOCC2)c(=O)c2nn(-c3ccccc3)c(C)c12 (stereo unspecified),"inconclusive: 36.6 µM [falling, partial curve, poor fit]"
2,N#Cc1nc(Nc2ccc(-c3ccccc3)cc2)nc(NC2CCCC2)n1,"inconclusive: 16.4 µM [falling, single point]"
3,O=C(CCC1CCCCC1)Nc1cccc(C(=O)Nc2ccc(C(=O)O)cc2)c1,"inconclusive: 23.1 µM [activator, partial curve]"
4,Cc1ccc(-c2cc(NC(=O)COc3ccc(Cl)cc3C)on2)cc1,"inconclusive: 2.91 µM [activator, full curve, poor fit]"
5,Oc1ccccc1-c1nnc2n1CCCCC2,"inconclusive: 8.2 µM [activator, partial curve, poor fit]"
6,Cc1onc(-c2c(F)cccc2Cl)c1C(=O)N1CCN(c2ncc(Br)cn2)CC1,"inconclusive: 29.1 µM [falling, partial curve, poor fit]"
7,CCOc1ccc(CCNC(=O)c2cc3c(s2)-c2ccccc2OC3)cc1OCC,"inconclusive: 18.4 µM [falling, single point]"
8,CCc1nc(C)ccc1OCC(=O)NCCCN(C)C,inactive
9,Nc1nc(=S)c2ncn([C@@H]3O[C@H](CO)[C@@H](O)[C@H]3O)c2[nH]1,"inconclusive: 1.3 µM [falling, partial curve]"
10,Cc1ccc(C(=O)Nc2nc(=O)n(C)s2)cc1,"inconclusive: 2.31 µM [activator, partial curve, poor fit]"
11,O=C(NNC(=O)c1cnccn1)c1cccc([N+](=O)[O-])c1,"inconclusive: 0.146 µM [falling, partial curve, poor fit]"
12,C=C(C1=CCN(S(=O)(=O)C(C)(C)C)[C@@H]1CCO)c1ccccc1,inactive
13,Cc1onc(-c2c(F)cccc2Cl)c1C(=O)ONC(=O)c1ccccc1,"inconclusive: 1.84 µM [activator, partial curve, poor fit]"
14,CCc1ccc2nc3nc(C)cc(C)c3c(N)c2c1,"inconclusive: 32.6 µM [falling, single point]"
15,Cc1occc1C(=O)NNS(=O)(=O)c1ccc([N+](=O)[O-])cc1,"inconclusive: 29.1 µM [falling, single point]"
16,COc1ccc(NS(=O)(=O)c2cccc(C(=O)N3CCCCCCC3)c2)cc1,"inconclusive: 29.1 µM [falling, single point]"
17,CCOc1ccc(NC(=O)CC2C(=O)N(c3ccccc3)C(=O)N2Cc2ccc3c(c2)OCO3)cc1 (stereo unspecified),inactive
18,Cc1csc2nc(O)c(C(=O)NC3CCCCC3C)c(=O)n12 (stereo unspecified),"inconclusive: 25.9 µM [falling, single point]"
19,CCC(C)C(NC(=O)CCC(=O)OCC(=O)[C@@]1(O)CCC2[C@@H]3CCC4=CC(=O)C=C[C@]4(C)C3[C@@H](O)C[C@@]21C)C(=O)O (stereo partly specified),active: 0.184 µM
20,CC[n+]1c(C)cc(C)n1-c1ccccc1,inactive
21,O=C(Nc1cc(Cl)ccc1Cl)C1CC(=O)N(c2ccccc2)C1 (stereo unspecified),inactive
22,Cc1nc(COc2ccccc2Cl)sc1-c1ccnc(N)n1,"inconclusive: 29.1 µM [activator, single point]"

row,SMILES,Potency
1,Cc1c(Cl)cccc1-n1nc(C)c2c(C(=O)NCc3ccccc3)cc(C3CC3)nc21,inactive
2,Cc1cc(C)c(C(=O)COC(=O)c2cc([N+](=O)[O-])ccc2NCCO)cc1C,"inconclusive: 29.1 µM [falling, single point]"
3,Cc1nn(CC(=O)N2CCN(c3ccccn3)CC2)c(=O)c2cc3sccc3n12,active: 29.1 µM
4,S=C(NCCN1CCOCC1)N1CCN(c2cccc(Cl)c2)CC1,"inconclusive: 3.26 µM [falling, full curve]"
5,CC[n+]1c(/C=C/c2ccc(OC)c(OC)c2)ccc2ccccc21,"inconclusive: 8.2 µM [activator, partial curve]"
6,O=C(c1nn2c(C(F)(F)F)cc(-c3ccco3)nc2c1Br)N1CCCc2ccccc21,"inconclusive: 6.51 µM [activator, single point]"
7,CN(Cc1ccccc1)C(=O)CN1CCN(C(c2ccccc2)c2ccccc2)CC1,"inconclusive: 20.6 µM [falling, partial curve, poor fit]"
8,C=CCc1cccc2cc(C(=O)NCc3cccnc3)c(=O)oc12,"inconclusive: 6.51 µM [falling, single point]"
9,CN1C(=O)/C(=C/c2cccc(Cl)c2)Sc2ccc(C(=O)N3CCOCC3)cc21,active: 14.6 µM
10,Cc1ccc(NC(=S)NNC(=O)c2c(Cl)c(C)nn2C)cc1,"inconclusive: 20.6 µM [falling, single point]"
11,Cc1nnc(SCC(=O)NCCN2C(=O)CSC2=O)s1,"inconclusive: 0.731 µM [falling, full curve]"
12,O=S(=O)(c1cccc(Br)c1)N1CCN(c2ccnc3cc(Cl)ccc23)CC1,"inconclusive: 16.4 µM [falling, partial curve, poor fit]"
13,COc1ccc(Cl)cc1NC(=O)c1cc2nc(-c3ccc4c(c3)OCO4)cc(C(F)(F)F)n2n1,inactive
14,Cc1nnc(SCc2ccc(F)cc2)n1NC/C=C/c1ccccc1,"inconclusive: 16.4 µM [falling, single point]"
15,CCN1CCN(C(=O)CCCCCn2c(=O)[nH]c3cc(C(=O)OC)ccc3c2=O)CC1,inactive
16,Cc1ccc(S(=O)(=O)N2CCOC2CNC(=O)C(=O)NCCc2c[nH]c3ccccc23)cc1 (stereo unspecified),"inconclusive: 23.1 µM [falling, single point]"
17,COc1ccc(OC)c(S(=O)(=O)Nc2cccc3c(O)cccc23)c1,inactive
18,O=C(NCC1CCCN1S(=O)(=O)c1cccs1)c1ccc(F)c(F)c1 (stereo unspecified),"inconclusive: 14.6 µM [falling, single point]"
19,COc1ccc(CNc2nc3ccccc3n2C(C)C)cc1,inactive
20,O=C(CCCOc1ccc(Br)cc1)Nc1nnc(C2CC2)s1,"inconclusive: 29.1 µM [falling, single point]"
21,CC(=Nc1ccc(Br)cc1)c1sc2ccccc2c1O,"inconclusive: 29.1 µM [activator, single point]"
22,COc1cc(NC(=O)c2csc(-c3ccncc3)n2)cc(C(=O)Nc2cccc(C(F)(F)F)c2)c1,"inconclusive: 20.6 µM [falling, single point]"

row,SMILES,Potency
1,C/C(Cc1ccccc1)=N\NC(=O)c1ccccn1,"inconclusive: 4.61 µM [activator, partial curve]"
2,CCN(Cc1nc2ccccc2c(=O)[nH]1)C(=O)c1cccc(S(=O)(=O)N2CCc3ccccc32)c1,"inconclusive: 29.1 µM [falling, single point]"
3,COc1ccc(S(=O)(=O)N2CCOC2CNC(=O)C(=O)NCCc2ccccc2OC)cc1C (stereo unspecified),"inconclusive: 13 µM [falling, partial curve, poor fit]"
4,CCOc1ccc(NS(=O)(=O)c2ccc3[nH]cc(C(=O)NCc4ccco4)c(=O)c3c2)cc1,"inconclusive: 0.13 µM [activator, full curve, poor fit]"
5,Cc1ccc(S(=O)(=O)Nc2ccc(-c3cn4ccc(C)cc4n3)cc2)cc1,"inconclusive: 25.9 µM [falling, single point]"
6,Cc1cccc(C2=NN(c3ccccc3)[C@H](CO)[C@H]2c2ccc(F)cc2)c1,inactive
7,Cc1ccc(NC(=O)CSc2nn(-c3ccc(Cl)cc3)c(=S)s2)cc1S(=O)(=O)N(C)C,"inconclusive: 18.4 µM [falling, single point]"
8,CCN(CC)S(=O)(=O)c1ccc(NC(=O)[C@H](CSCc2ccccc2)N2Cc3ccccc3C2=O)cc1,"inconclusive: 0.651 µM [activator, full curve, poor fit]"
9,Cc1ccc(-c2nc(NC(=O)c3nn(C)cc3[N+](=O)[O-])sc2C)cc1C,active: 25.9 µM
10,C=CCn1c(SCc2nc3ccccc3[nH]2)nnc1-c1ccc(OC)cc1,"inconclusive: 20.6 µM [falling, single point]"
11,Cc1ccccc1/C=C1\SC(=S)N(/N=C/c2cc([N+](=O)[O-])ccc2O)C1=O,"inconclusive: 2.91 µM [activator, full curve, poor fit]"
12,Cc1ccccc1C(=O)N1CCN(c2nc(N3CCOCC3)nc(N3CCOCC3)n2)CC1,"inconclusive: 25.9 µM [activator, single point]"
13,CCOC(=O)c1nnn(-c2ccc([N+](=O)[O-])cc2[N+](=O)[O-])c1C,inactive
14,Cc1ccc(-c2csc(NC(=O)c3ccccc3F)c2C(=O)O)cc1,"inconclusive: 6.51 µM [falling, full curve, poor fit]"
15,CCCNC(=O)CSc1nnc(C)s1,inactive
16,Nc1ccc(-c2cnc(-c3ccc(N)cc3)nc2)cc1,"inconclusive: 2.91 µM [activator, partial curve]"
17,COc1ccc(-c2cc3ccccc3[nH]2)cc1,"inconclusive: 10.3 µM [activator, partial curve]"
18,CNc1ccccc1C(C)(C)c1cc(-c2ccc(F)cc2)no1,active: 8.2 µM
19,Cc1cc(N2CCCCC2)n2ncc(-c3ccccc3)c2n1,"inconclusive: 0.651 µM [activator, full curve, poor fit]"
20,Cc1sc2ncnc(N(C)Cc3cccs3)c2c1C,"inconclusive: 20.6 µM [falling, single point]"
21,CCN1CCN(C(=O)Cn2c(=O)sc3ccccc32)CC1,inactive
22,O=C(Nc1ccc(C(F)(F)F)cc1)C1CCC(CNS(=O)(=O)c2cccc3nsnc23)CC1 (stereo unspecified),"inconclusive: 3.66 µM [falling, partial curve, poor fit]"

# Some values from the results shown:
# Potency with COc1ccc(Cl)cc1NC(=O)c1cc2nc(-c3ccc4c(c3)OCO4)cc(C(F)(F)F)n2n1 reads inactive
# Potency with O=C(NNC(=O)c1cnccn1)c1cccc([N+](=O)[O-])c1 reads inconclusive: 0.146 µM [falling, partial curve, poor fit]
